The supplement of paper PMC12823440, “Inhibitors supercharge kinase turnover through native proteolytic circuits” (Nature, 2025)
Structures can show the parent of a compound that is named as a salt. This is one part of the list. Hit calls seldom repeat between salt and free forms of one compound.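 Kinases were expressed as nanoluciferase fusions in K562 cells and luminescence was read every 4 h between 2 and 18 h as percent of control, DMSO set to 100% and a positive control to 0%. A time point counts as decreased when the signal drops significantly (2 sigma). The hit call is the authors' own, does not follow from the count of time points alone, and its rule is not shown.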

The chains behind the UniProt entries cited, without tags or fusion partners. Where a name states a change or a piece, a line headed by the entry shows the natural chain unless it says otherwise.
UniProt O15530: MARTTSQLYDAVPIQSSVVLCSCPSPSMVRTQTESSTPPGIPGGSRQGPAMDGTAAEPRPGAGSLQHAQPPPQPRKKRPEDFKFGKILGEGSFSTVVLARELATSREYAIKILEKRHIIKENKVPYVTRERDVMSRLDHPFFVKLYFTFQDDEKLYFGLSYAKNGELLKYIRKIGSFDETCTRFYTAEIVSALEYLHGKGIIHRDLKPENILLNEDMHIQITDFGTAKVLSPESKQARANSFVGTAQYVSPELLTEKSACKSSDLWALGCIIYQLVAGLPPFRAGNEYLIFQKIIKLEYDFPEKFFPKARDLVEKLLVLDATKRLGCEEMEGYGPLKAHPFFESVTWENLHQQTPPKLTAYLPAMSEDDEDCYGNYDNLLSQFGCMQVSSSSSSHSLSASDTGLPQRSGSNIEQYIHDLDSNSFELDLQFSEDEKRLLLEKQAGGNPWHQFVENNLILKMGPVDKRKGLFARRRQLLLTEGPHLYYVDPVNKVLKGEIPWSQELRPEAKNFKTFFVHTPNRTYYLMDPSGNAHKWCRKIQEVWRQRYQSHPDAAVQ
UniProt P42356, whole entry, looked up: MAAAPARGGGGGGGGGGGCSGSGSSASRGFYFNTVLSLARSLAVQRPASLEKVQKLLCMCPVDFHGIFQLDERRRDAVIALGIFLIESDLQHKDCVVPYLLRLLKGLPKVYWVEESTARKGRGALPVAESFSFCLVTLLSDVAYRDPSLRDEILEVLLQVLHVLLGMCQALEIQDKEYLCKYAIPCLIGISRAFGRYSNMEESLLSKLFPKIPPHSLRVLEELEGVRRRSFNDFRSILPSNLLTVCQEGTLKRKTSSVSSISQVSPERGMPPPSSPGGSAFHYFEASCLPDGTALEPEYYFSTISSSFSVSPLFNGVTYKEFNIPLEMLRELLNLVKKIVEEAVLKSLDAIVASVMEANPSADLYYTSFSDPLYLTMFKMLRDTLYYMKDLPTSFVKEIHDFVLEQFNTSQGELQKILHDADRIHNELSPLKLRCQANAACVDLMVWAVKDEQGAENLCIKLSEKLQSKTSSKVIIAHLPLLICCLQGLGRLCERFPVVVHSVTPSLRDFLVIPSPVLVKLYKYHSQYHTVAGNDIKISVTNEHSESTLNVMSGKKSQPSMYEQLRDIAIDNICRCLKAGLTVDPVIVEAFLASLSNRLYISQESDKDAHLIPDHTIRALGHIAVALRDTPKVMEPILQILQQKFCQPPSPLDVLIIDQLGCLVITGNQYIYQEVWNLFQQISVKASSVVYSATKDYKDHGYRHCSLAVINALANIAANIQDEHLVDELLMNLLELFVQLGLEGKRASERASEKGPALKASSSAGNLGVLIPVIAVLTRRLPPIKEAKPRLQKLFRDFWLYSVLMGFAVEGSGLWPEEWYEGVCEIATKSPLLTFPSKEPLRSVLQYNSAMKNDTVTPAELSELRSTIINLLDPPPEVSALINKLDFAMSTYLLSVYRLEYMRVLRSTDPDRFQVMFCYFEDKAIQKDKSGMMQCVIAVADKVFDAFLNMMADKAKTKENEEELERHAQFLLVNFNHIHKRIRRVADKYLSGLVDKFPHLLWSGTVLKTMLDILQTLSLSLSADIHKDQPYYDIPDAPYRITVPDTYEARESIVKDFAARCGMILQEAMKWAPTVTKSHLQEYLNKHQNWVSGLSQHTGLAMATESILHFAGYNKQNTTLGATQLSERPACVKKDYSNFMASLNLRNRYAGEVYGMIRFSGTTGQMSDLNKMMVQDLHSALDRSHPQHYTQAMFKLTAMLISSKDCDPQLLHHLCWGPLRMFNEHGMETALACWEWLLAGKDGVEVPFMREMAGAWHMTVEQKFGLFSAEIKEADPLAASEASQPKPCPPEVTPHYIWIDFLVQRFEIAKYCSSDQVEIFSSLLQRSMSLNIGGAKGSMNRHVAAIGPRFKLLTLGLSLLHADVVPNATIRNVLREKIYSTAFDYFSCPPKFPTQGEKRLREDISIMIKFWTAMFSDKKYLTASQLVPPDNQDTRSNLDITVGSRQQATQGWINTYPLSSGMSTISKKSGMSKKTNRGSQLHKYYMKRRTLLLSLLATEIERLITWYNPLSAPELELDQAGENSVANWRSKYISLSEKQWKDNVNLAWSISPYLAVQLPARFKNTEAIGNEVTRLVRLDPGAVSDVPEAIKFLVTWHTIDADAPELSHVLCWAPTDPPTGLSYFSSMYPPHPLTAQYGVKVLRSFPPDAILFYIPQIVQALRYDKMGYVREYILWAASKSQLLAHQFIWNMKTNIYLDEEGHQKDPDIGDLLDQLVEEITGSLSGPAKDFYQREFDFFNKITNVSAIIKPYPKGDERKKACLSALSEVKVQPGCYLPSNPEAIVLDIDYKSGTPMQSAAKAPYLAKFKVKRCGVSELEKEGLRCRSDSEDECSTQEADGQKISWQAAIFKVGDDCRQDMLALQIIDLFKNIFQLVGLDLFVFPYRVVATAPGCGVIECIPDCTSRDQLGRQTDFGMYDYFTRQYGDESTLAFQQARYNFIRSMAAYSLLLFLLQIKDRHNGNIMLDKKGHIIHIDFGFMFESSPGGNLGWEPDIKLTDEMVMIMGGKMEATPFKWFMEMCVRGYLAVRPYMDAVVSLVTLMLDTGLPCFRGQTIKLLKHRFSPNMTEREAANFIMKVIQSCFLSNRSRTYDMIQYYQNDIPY
UniProt Q9UBF8: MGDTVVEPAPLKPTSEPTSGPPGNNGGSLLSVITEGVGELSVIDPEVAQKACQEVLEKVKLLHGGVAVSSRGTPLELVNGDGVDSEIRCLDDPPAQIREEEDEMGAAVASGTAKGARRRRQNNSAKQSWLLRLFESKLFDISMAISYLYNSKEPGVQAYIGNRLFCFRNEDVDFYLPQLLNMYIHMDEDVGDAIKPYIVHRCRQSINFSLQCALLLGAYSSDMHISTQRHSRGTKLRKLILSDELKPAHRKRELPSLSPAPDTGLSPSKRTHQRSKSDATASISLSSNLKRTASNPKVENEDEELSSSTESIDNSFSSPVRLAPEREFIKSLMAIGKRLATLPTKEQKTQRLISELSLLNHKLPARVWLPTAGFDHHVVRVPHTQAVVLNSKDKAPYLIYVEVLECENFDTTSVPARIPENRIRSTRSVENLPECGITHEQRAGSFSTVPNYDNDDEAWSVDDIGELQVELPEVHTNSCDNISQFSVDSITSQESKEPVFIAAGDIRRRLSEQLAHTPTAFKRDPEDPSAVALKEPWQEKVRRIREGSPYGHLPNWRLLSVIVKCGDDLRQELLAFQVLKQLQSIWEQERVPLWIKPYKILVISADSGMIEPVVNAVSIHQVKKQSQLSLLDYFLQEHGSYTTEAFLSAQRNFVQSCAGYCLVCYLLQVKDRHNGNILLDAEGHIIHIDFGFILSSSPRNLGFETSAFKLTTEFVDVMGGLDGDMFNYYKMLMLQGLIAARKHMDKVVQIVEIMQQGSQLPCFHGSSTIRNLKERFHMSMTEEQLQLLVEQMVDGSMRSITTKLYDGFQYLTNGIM
UniProt P53350, whole entry: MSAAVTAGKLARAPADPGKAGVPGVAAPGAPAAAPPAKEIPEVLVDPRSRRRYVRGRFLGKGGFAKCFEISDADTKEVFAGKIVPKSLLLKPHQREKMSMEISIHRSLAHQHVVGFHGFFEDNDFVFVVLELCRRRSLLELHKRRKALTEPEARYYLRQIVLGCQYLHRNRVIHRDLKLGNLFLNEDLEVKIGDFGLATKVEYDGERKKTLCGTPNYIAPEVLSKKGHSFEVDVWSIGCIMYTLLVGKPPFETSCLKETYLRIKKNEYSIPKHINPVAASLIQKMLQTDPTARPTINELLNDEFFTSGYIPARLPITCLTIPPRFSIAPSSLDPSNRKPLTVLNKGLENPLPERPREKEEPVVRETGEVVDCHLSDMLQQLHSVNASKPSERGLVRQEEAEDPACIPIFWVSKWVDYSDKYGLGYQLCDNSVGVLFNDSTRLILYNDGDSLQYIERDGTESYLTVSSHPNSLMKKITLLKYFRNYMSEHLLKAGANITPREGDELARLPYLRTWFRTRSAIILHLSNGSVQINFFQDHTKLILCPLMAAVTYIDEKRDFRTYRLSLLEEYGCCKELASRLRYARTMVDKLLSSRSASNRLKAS
UniProt Q13131: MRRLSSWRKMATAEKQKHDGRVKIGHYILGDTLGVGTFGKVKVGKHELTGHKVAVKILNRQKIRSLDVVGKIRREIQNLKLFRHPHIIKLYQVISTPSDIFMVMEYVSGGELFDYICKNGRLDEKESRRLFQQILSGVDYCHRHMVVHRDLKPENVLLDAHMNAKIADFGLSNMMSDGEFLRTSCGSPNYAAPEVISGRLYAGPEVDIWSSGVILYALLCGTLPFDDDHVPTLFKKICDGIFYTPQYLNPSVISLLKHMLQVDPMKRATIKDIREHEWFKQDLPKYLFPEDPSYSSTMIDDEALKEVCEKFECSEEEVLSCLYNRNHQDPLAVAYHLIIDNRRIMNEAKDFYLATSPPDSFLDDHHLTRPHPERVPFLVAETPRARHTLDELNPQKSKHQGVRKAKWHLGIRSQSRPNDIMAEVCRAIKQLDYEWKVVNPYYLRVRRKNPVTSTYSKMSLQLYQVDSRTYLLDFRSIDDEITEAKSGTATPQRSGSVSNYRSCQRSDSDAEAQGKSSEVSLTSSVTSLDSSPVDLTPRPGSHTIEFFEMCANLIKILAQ
UniProt Q14289, whole entry, looked up: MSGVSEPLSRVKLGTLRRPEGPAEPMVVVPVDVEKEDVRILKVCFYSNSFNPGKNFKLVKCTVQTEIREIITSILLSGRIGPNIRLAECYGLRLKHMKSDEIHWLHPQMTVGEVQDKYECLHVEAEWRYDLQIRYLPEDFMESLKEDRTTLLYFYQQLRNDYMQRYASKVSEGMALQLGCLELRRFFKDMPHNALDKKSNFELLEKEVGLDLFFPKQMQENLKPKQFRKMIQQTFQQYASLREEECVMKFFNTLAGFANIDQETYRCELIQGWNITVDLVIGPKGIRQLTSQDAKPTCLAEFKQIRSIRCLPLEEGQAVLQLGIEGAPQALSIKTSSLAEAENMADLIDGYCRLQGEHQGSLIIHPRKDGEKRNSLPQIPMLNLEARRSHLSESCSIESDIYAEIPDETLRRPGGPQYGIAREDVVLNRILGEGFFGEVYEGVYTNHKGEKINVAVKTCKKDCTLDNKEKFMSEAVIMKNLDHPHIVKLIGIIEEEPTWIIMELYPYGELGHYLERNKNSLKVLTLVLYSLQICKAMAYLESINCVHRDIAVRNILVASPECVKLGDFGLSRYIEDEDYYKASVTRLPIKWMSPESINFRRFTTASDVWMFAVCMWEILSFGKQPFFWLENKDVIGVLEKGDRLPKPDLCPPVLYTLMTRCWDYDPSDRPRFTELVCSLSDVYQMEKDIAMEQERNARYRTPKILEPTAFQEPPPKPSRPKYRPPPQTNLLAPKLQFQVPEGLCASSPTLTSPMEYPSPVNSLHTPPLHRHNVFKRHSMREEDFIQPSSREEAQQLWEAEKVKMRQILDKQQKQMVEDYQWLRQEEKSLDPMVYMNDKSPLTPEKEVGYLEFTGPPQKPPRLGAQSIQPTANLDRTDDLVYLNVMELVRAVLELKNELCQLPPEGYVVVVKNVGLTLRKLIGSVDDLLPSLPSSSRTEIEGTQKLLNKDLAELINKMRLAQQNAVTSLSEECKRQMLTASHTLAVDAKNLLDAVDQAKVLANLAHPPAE

Legend:
Assay in all cases: kinase-Nluc reporter destabilization hit call (1 = scored as downregulated) (binary); higher = compound decreases kinase abundance
Conditions in all cases: K562; 2-18 h
[1] = biological target: PDPK1 (UniProt O15530)
[2] = biological target: PIK4CA (UniProt P42356)
[3] = biological target: PIK4CB (UniProt Q9UBF8)
[4] = biological target: PLK1 (UniProt P53350)
[5] = biological target: PRKAA1 (UniProt Q13131)
[6] = biological target: PRKCA (UniProt P17252)
[7] = biological target: PTK2 (UniProt Q05397)
[8] = biological target: PTK2B (UniProt Q14289)
[9] = biological target: RAF1 (UniProt P04049)
[10] = biological target: RAF1_S257L (clone: RAF1_mut) (UniProt P04049)

SMILES | kinase-Nluc reporter destabilization hit call [1] | kinase-Nluc reporter destabilization hit call [2] | kinase-Nluc reporter destabilization hit call [3] | kinase-Nluc reporter destabilization hit call [4] | kinase-Nluc reporter destabilization hit call [5] | kinase-Nluc reporter destabilization hit call [6] | kinase-Nluc reporter destabilization hit call [7] | kinase-Nluc reporter destabilization hit call [8] | kinase-Nluc reporter destabilization hit call [9] | kinase-Nluc reporter destabilization hit call [10]
C[C@H](NC(=O)[C@H]1NCC[C@@H]1O)c1ccc(-c2noc(CCC3CCCC3)n2)cc1 (10 µM) | inactive: 0 | inactive: 0 | inactive: 0 | inactive: 0 | inactive: 0 | inactive: 0 | inactive: 0 | inactive: 0 | inactive: 0 | inactive: 0
CC(C)CNc1ccnc(NCc2csc(-c3ccccc3)n2)n1 [KHS101 hydrochloride] (2.5 µM) | inactive: 0 | inactive: 0 | inactive: 0 | inactive: 0 | inactive: 0 | inactive: 0 | inactive: 0 | inactive: 0 | inactive: 0 | inactive: 0
CC(C)(C)n1nc(Cc2ccccc2O)c2c(N)ncnc21 (10 µM) | inactive: 0 | inactive: 0 | inactive: 0 | inactive: 0 | inactive: 0 | inactive: 0 | inactive: 0 | inactive: 0 | inactive: 0 | inactive: 0
Cc1nn(C)c2c1C(c1ccc(C(F)(F)F)cc1)C(C#N)=C(N)O2 (stereo not given) (10 µM) | inactive: 0 | inactive: 0 | inactive: 0 | inactive: 0 | inactive: 0 | inactive: 0 | inactive: 0 | inactive: 0 | inactive: 0 | inactive: 0
O=[N+]([O-])c1ccc2c(c1)S(=O)(=O)C=C2 [Stattic] (2.5 µM) | inactive: 0 | inactive: 0 | inactive: 0 | inactive: 0 | inactive: 0 | inactive: 0 | inactive: 0 | inactive: 0 | inactive: 0 | inactive: 0
O=Nc1c2[nH]c3ccccc3nc-2c2ccccc12 [IQ-1S (free acid)] (2.5 µM) | inactive: 0 | inactive: 0 | inactive: 0 | inactive: 0 | inactive: 0 | inactive: 0 | inactive: 0 | inactive: 0 | inactive: 0 | inactive: 0
Cc1cc2sc(NC(=O)Cc3ccccc3)nc2cc1Cl (10 µM) | inactive: 0 | inactive: 0 | inactive: 0 | inactive: 0 | inactive: 0 | inactive: 0 | inactive: 0 | inactive: 0 | inactive: 0 | inactive: 0
Cc1ccn2c(C(=O)C(=O)c3ccccc3)c(-c3ccccc3)nc2c1 (10 µM) | inactive: 0 | inactive: 0 | inactive: 0 | inactive: 0 | inactive: 0 | inactive: 0 | inactive: 0 | inactive: 0 | inactive: 0 | inactive: 0
FC(F)(F)c1ccc(/C=C/c2nc(COc3ccc(CCCCn4ccnn4)cc3)co2)cc1 [Mubritinib] (10 µM) | inactive: 0 | inactive: 0 | inactive: 0 | inactive: 0 | inactive: 0 | inactive: 0 | inactive: 0 | inactive: 0 | inactive: 0 | inactive: 0
Cc1cccc2c3c(ccc12)C(=O)C1=C(OCC1C)C3=O (stereo not given) [Dihydroisotanshinone I] (2.5 µM) | inactive: 0 | inactive: 0 | inactive: 0 | inactive: 0 | inactive: 0 | inactive: 0 | inactive: 0 | inactive: 0 | inactive: 0 | inactive: 0
O=c1cc(N2CCOCC2)nc2c3ccccc3ccn12 [Compound 401] (10 µM) | inactive: 0 | inactive: 0 | inactive: 0 | inactive: 0 | inactive: 0 | inactive: 0 | inactive: 0 | inactive: 0 | inactive: 0 | active: 1
Cn1cc(C2=C(c3cn(CCCSC(=N)N)c4ccccc34)C(=O)NC2=O)c2ccccc21 [Ro 31-8220 (mesylate)] (2.5 µM) | inactive: 0 | inactive: 0 | inactive: 0 | inactive: 0 | inactive: 0 | inactive: 0 | inactive: 0 | inactive: 0 | inactive: 0 | inactive: 0
C=CC(=O)Nc1cccc(-c2cccc3cnc(Nc4ccc(N5CCN(CCO)CC5)c(F)c4F)nc23)c1 [Olafertinib] (2.5 µM) | inactive: 0 | inactive: 0 | inactive: 0 | inactive: 0 | inactive: 0 | inactive: 0 | inactive: 0 | inactive: 0 | inactive: 0 | inactive: 0
Cn1cc(-c2c[nH]c3ncnc(N4CCOCC4)c23)cc1C#N (10 µM) | inactive: 0 | inactive: 0 | inactive: 0 | inactive: 0 | inactive: 0 | inactive: 0 | inactive: 0 | inactive: 0 | inactive: 0 | inactive: 0
COc1ccccc1C(=O)/C=C/c1ccccc1C(=O)O (10 µM) | inactive: 0 | inactive: 0 | inactive: 0 | inactive: 0 | inactive: 0 | inactive: 0 | inactive: 0 | inactive: 0 | inactive: 0 | inactive: 0
Oc1ccc(/C=C/c2cc(O)cc(F)c2)cc1 [Resveratrol analog 1] (10 µM) | inactive: 0 | inactive: 0 | inactive: 0 | inactive: 0 | inactive: 0 | inactive: 0 | inactive: 0 | inactive: 0 | inactive: 0 | inactive: 0
CNC(=O)c1ccccc1Nc1nc(Nc2ccc3c(c2OC)CCC[C@H](N2CCN(CCO)CC2)C3)ncc1Cl (10 µM) | inactive: 0 | inactive: 0 | inactive: 0 | inactive: 0 | inactive: 0 | inactive: 0 | inactive: 0 | inactive: 0 | inactive: 0 | inactive: 0
O=C(Nc1nc2ccc(NC(=O)C34CC5CC(CC(C5)C3)C4)cc2s1)c1ccccc1 (10 µM) | inactive: 0 | inactive: 0 | inactive: 0 | inactive: 0 | inactive: 0 | inactive: 0 | inactive: 0 | inactive: 0 | inactive: 0 | inactive: 0

SMILES | kinase-Nluc reporter destabilization hit call [1] | kinase-Nluc reporter destabilization hit call [2] | kinase-Nluc reporter destabilization hit call [3] | kinase-Nluc reporter destabilization hit call [4] | kinase-Nluc reporter destabilization hit call [5] | kinase-Nluc reporter destabilization hit call [6] | kinase-Nluc reporter destabilization hit call [7] | kinase-Nluc reporter destabilization hit call [8] | kinase-Nluc reporter destabilization hit call [9] | kinase-Nluc reporter destabilization hit call [10]
CNC(=O)c1ccccc1Oc1nc(Nc2cc(OC)c(OC)c(OC)c2)ncc1Br (2.5 µM) | inactive: 0 | inactive: 0 | inactive: 0 | inactive: 0 | inactive: 0 | inactive: 0 | inactive: 0 | inactive: 0 | inactive: 0 | inactive: 0
CCc1cncnc1N1CCN(Cc2nc3ccc(C(F)(F)F)cc3[nH]2)CC1 (10 µM) | inactive: 0 | inactive: 0 | inactive: 0 | inactive: 0 | inactive: 0 | inactive: 0 | inactive: 0 | inactive: 0 | inactive: 0 | inactive: 0
O=C1O[C@H]([C@@H](O)CO)C(O)=C1OP(=O)(O)O [2-Phospho-L-ascorbic acid (trisodium)] (10 µM) | inactive: 0 | inactive: 0 | inactive: 0 | inactive: 0 | inactive: 0 | inactive: 0 | inactive: 0 | inactive: 0 | inactive: 0 | inactive: 0
CC[C@@](C)(Nc1ccnc(-c2c[nH]c3ncccc23)n1)C(=O)NCC(F)(F)F [Decernotinib] (10 µM) | inactive: 0 | inactive: 0 | inactive: 0 | inactive: 0 | inactive: 0 | inactive: 0 | inactive: 0 | inactive: 0 | inactive: 0 | inactive: 0
C=CC(=O)N1C[C@H](COc2nc(Nc3cnn(C)c3)nc3[nH]cc(Cl)c23)[C@@H](OC)C1 (2.5 µM) | inactive: 0 | inactive: 0 | inactive: 0 | inactive: 0 | inactive: 0 | inactive: 0 | inactive: 0 | inactive: 0 | inactive: 0 | inactive: 0
Cc1ccc(C(=O)Nc2sc(Nc3ccccc3)nc2C(N)=O)cc1 (10 µM) | inactive: 0 | inactive: 0 | inactive: 0 | inactive: 0 | inactive: 0 | inactive: 0 | inactive: 0 | inactive: 0 | inactive: 0 | inactive: 0
CCc1ccc(OCC(=O)Nc2ccc(F)c([N+](=O)[O-])c2)cc1 (10 µM) | inactive: 0 | inactive: 0 | inactive: 0 | inactive: 0 | inactive: 0 | inactive: 0 | inactive: 0 | inactive: 0 | inactive: 0 | inactive: 0
CC(C)c1cccc(C(C)C)c1N1C(=O)c2ccc(N)cc2C1=O (2.5 µM) | inactive: 0 | inactive: 0 | inactive: 0 | inactive: 0 | inactive: 0 | inactive: 0 | inactive: 0 | inactive: 0 | inactive: 0 | inactive: 0
Cc1cc(-c2ccnc(Nc3cnn(C)c3)n2)ccc1CNC(=O)N1CC(OC(C)C)C1 (10 µM) | inactive: 0 | inactive: 0 | inactive: 0 | inactive: 0 | inactive: 0 | inactive: 0 | inactive: 0 | inactive: 0 | inactive: 0 | inactive: 0
O=c1[nH]c(C2CCCN2)nc2c1oc1ccc(Cl)cc12 (stereo not given) [XL413 (hydrochloride)] (10 µM) | inactive: 0 | inactive: 0 | inactive: 0 | inactive: 0 | inactive: 0 | inactive: 0 | inactive: 0 | inactive: 0 | inactive: 0 | inactive: 0
C=CC(=O)Nc1cccc(CNc2nc(Nc3ccc(N4CCN(C)CC4)cc3OC)ncc2Cl)c1 (10 µM) | inactive: 0 | inactive: 0 | inactive: 0 | inactive: 0 | inactive: 0 | inactive: 0 | inactive: 0 | inactive: 0 | inactive: 0 | inactive: 0
Nc1ncnc2c1c(-c1ccc(Oc3ccccc3)cc1)nn2C1CCN(CCOCCOCCOc2ccc3c(c2)CN(C2CCC(=O)NC2=O)C3=O)CC1 (stereo not given) (2.5 µM) | inactive: 0 | inactive: 0 | inactive: 0 | inactive: 0 | inactive: 0 | inactive: 0 | inactive: 0 | inactive: 0 | inactive: 0 | inactive: 0
Cc1cc(Nc2nc(CC3(C(=O)O)CCN(C(=O)c4cccc(Cl)c4Cl)CC3)ccc2F)n[nH]1 (10 µM) | inactive: 0 | inactive: 0 | inactive: 0 | inactive: 0 | inactive: 0 | inactive: 0 | inactive: 0 | inactive: 0 | inactive: 0 | inactive: 0
COc1ccc(/C=C/C(=O)C2(C(=O)/C=C/c3ccc(OC)c(OC)c3)CCCCC2)cc1OC (2.5 µM) | inactive: 0 | inactive: 0 | inactive: 0 | inactive: 0 | inactive: 0 | inactive: 0 | inactive: 0 | inactive: 0 | inactive: 0 | inactive: 0
CN(C)c1nc2c(Br)c(Br)c(Br)c(Br)c2[nH]1 (10 µM) | inactive: 0 | inactive: 0 | inactive: 0 | inactive: 0 | inactive: 0 | inactive: 0 | inactive: 0 | inactive: 0 | inactive: 0 | inactive: 0
CCOC(=O)N1C/C(=C/c2ccccc2F)C(=O)/C(=C\c2ccccc2F)C1 (2.5 µM) | inactive: 0 | inactive: 0 | inactive: 0 | inactive: 0 | inactive: 0 | inactive: 0 | inactive: 0 | inactive: 0 | inactive: 0 | inactive: 0
Nc1cccc(-c2cc3c(Oc4cccc(O)c4)ncnc3[nH]2)c1 (10 µM) | inactive: 0 | inactive: 0 | inactive: 0 | inactive: 0 | inactive: 0 | inactive: 0 | inactive: 0 | inactive: 0 | inactive: 0 | inactive: 0

In another format: two of the compounds above
SMILES	kinase-Nluc reporter destabilization hit call [1]	kinase-Nluc reporter destabilization hit call [2]	kinase-Nluc reporter destabilization hit call [3]	kinase-Nluc reporter destabilization hit call [4]	kinase-Nluc reporter destabilization hit call [5]	kinase-Nluc reporter destabilization hit call [6]	kinase-Nluc reporter destabilization hit call [7]	kinase-Nluc reporter destabilization hit call [8]	kinase-Nluc reporter destabilization hit call [9]	kinase-Nluc reporter destabilization hit call [10]
CC[C@@](C)(Nc1ccnc(-c2c[nH]c3ncccc23)n1)C(=O)NCC(F)(F)F [Decernotinib] (10 µM)	inactive: 0	inactive: 0	inactive: 0	inactive: 0	inactive: 0	inactive: 0	inactive: 0	inactive: 0	inactive: 0	inactive: 0
C=CC(=O)N1C[C@H](COc2nc(Nc3cnn(C)c3)nc3[nH]cc(Cl)c23)[C@@H](OC)C1 (2.5 µM)	inactive: 0	inactive: 0	inactive: 0	inactive: 0	inactive: 0	inactive: 0	inactive: 0	inactive: 0	inactive: 0	inactive: 0
